Laboratory results as given in article PMC11781175.
These are yes or no findings as the source states them, for the method shown. In cells and extracts the contact can be indirect. Some results given as binding are weak or reduced against the parent protein; the word gives no strength.

Sequences of proteins named here, by UniProt entry; tags and fusion partners are left off.
UniProt P46937: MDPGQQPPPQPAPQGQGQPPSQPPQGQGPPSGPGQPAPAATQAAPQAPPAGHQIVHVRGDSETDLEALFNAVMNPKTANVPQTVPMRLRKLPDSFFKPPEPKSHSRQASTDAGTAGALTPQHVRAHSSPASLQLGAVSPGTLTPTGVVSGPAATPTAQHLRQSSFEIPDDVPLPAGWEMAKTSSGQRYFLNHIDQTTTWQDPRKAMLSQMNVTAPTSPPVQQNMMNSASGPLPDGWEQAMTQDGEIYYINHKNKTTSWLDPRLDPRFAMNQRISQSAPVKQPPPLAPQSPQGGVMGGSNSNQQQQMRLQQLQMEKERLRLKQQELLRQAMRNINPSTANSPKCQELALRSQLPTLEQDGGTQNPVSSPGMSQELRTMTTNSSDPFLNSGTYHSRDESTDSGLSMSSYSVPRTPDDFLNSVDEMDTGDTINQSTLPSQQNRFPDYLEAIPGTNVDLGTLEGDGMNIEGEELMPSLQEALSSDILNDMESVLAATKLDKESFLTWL

Biological target: Yes1-associated transcriptional regulator (human (endogenous in HK-2)) (UniProt P46937)
Assay: co-IP; HK-2 cell lysates (500 ul lysis buffer, sonicated); supernatant incubated with anti-YAP1 antibody, anti-Nrf2 antibody or control IgG at 4 °C overnight, then protein A/G agarose beads at 4 °C overnight; washed three times; western blotting

binding: binds
B1: Nuclear factor erythroid 2-related factor 2 (protein, UniProt Q16236 1-605)
chain: MMDLELPPPGLPSQQDMDLIDILWRQDIDLGVSREVFDFSQRRKEYELEKQKKLEKERQEQLQKEQEKAFFAQLQLDEETGEFLPIQPAQHIQSETSGSANYSQVAHIPKSDALYFDDCMQLLAQTFPFVDDNEVSSATFQSLVPDIPGHIESPVFIATNQAQSPETSVAQVAPVDLDGMQQDIEQVWEELLSIPELQCLNIENDKLVETTMVPSPEAKLTEVDNYHFYSSIPSMEKEVGNCSPHFLNAFEDSFSSILSTEDPNQLTVNSLNSDATVNTDFGDEFYSAFIAEPSISNSMPSPATLSHSLSELLNGPIDVSDLSLCKAFNQNHPESTAEFNDSDSGISLNTSPSVASPEHSVESSSYGDTLLGLSDSEVEELDSAPGSVKQNGPKTPVHSSGDMVQPLSPSQGQSTHVHDAQCENTPEKELPVSPGHRKTPFTKDKHSSRLEAHLTRDELRAKALHIPFPVEKIINLPVVDFNEMMSKEQFNEAQLALIRDIRRRGKNKVAAQNCRKRKLENIVELEQDLDHLKDEKEKLLKEKGENDKSLHLLKKQLSTLYLEVFSMLRDEDGKPYSPSEYSLQQTRDGNVFLVPKSKKPDVKKN
